Results: paper PMC8805966
These are yes or no findings as the source states them, for the method shown. In cells and extracts the contact can be indirect. Some binding calls cover weakened binding; strength is not graded here.

Protein sequences, listed by entry. Tags and fused reporters are not part of them.
UniProt Q8WUY9: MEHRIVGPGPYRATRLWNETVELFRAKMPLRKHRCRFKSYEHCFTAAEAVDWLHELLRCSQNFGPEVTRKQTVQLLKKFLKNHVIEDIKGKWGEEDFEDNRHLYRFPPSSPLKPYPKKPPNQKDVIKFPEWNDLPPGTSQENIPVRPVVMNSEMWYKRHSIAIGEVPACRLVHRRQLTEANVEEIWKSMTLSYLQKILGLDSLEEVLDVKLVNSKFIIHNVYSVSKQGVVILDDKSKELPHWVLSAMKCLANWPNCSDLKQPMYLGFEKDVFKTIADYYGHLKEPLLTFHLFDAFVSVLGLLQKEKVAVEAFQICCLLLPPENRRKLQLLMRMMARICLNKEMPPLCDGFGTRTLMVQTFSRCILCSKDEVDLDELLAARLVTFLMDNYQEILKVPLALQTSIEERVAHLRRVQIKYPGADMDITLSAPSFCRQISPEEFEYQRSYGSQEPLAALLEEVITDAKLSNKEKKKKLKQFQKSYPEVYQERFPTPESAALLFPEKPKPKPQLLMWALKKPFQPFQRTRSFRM

Biological target: T1, kinesin family member 23 (KIF23) (human (endogenous in HCCLM3)) (UniProt Q02241)
T1 sequence: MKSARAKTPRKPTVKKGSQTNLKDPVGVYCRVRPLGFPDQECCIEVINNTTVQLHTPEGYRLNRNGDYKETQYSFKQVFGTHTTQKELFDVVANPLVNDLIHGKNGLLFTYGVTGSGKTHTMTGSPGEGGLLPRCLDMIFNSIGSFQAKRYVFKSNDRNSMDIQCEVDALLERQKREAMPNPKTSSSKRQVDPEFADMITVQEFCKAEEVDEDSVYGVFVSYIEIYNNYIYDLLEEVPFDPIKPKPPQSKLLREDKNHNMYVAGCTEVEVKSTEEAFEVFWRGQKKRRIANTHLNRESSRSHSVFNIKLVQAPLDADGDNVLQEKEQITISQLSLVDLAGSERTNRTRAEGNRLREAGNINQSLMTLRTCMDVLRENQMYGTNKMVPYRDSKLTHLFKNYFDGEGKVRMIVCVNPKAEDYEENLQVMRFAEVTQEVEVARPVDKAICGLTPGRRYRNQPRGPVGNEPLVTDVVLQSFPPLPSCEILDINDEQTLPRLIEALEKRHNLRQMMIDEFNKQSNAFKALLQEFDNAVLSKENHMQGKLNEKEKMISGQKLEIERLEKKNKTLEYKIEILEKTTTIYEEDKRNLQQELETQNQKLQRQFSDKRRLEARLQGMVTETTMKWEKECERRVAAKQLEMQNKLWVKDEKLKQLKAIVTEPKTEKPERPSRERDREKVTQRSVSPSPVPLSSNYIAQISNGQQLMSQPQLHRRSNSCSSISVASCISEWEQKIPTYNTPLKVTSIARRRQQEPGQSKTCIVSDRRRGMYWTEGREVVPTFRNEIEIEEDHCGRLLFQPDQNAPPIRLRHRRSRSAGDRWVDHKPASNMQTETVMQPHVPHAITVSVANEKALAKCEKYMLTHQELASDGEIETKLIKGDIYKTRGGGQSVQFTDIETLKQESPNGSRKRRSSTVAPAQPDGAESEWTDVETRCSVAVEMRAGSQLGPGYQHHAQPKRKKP
Assay: co-IP; HCCLM3 cells lysed in RIPA buffer with protease inhibitors; 2 ug KIF23 or IgG antibody overnight at 4°C, protein A agarose beads 2 h at 4°C, three washes with lysis buffer; Western blot for DEPDC1B

binding: binds
Substance: DEP domain containing 1B (DEPDC1B) (from UniProt Q8WUY9 1-529)
